Experimental findings from publication PMC12679367 are described below.

Amino acid sequences for entries named in this document (tags omitted). A change or cut given only in a name is not applied to a line headed by its entry. Residues count along the entry.
UniProt Q16236: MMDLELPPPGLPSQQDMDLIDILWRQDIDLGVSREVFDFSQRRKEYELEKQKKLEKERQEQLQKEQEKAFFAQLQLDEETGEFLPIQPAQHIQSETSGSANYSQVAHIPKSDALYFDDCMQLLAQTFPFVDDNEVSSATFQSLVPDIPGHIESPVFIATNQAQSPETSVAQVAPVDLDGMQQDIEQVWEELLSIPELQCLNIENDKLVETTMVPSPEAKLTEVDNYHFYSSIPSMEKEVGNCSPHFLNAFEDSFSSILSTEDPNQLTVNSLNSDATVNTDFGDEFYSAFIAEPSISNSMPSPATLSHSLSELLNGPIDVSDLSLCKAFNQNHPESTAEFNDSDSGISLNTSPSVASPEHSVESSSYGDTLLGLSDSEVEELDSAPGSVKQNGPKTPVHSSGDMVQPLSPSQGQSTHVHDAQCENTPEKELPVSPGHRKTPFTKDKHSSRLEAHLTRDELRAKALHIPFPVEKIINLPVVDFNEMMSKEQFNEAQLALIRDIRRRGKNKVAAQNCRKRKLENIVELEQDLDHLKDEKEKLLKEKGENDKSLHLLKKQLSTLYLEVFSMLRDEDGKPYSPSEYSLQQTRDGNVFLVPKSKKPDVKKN
UniProt O00217, residues 35-210: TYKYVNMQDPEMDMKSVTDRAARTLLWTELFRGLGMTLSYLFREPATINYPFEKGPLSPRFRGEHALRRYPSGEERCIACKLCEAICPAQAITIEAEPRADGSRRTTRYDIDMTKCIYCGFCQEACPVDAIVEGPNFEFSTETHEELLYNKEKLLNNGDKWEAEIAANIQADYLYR

In test [1] the target is mutant NRF2 from the Mut-NRF2 plasmid (mutated in residues 230-270) (UniProt Q16236). Put plainly: co-IP; HEK293T cells transfected with WT-NRF2 or Mut-NRF2 plasmid (Figure 6E); captured by anti-NRF2 antibody with Protein A/G PLUS-Agarose, blot with anti-NDUFS8; NDUFS8/NRF2 ratio quantified, n = 6.
The target in test [2] is T1, nuclear factor erythroid 2-related factor 2 (NRF2), endogenous in rat basal forebrain (rat (endogenous in basal forebrain)) (UniProt O54968).
T1 sequence: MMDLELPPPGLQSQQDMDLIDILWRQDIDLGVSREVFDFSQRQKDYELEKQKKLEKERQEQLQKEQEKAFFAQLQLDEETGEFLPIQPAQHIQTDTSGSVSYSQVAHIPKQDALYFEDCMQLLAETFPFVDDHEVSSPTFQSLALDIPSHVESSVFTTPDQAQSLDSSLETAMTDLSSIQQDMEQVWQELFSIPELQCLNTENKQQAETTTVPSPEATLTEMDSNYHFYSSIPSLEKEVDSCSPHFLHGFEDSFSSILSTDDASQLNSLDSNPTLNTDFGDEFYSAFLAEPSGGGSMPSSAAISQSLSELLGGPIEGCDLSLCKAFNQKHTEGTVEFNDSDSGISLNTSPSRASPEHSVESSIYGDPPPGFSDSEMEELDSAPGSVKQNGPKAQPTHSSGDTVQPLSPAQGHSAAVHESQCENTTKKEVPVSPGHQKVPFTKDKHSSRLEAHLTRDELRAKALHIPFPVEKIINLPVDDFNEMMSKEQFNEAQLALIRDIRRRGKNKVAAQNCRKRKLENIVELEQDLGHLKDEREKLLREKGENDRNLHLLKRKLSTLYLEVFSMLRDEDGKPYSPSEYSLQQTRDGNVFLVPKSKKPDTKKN
Put plainly: co-IP; 'in vivo' (Figure S6H); basal forebrain of sham and 2VO rats; captured by anti-NRF2 antibody with Protein A/G PLUS-Agarose, blot with anti-NDUFS8.

Results are given in words; binding and its absence hold for the method and conditions named. In cells and extracts the contact can be indirect. Binding can be weak; no strength is given.

With “NADH dehydrogenase (ubiquinone) Fe-S protein 8 (NDUFS8) in HEK293T cells (from UniProt O00217 35-210)”, the binding result in test [1] is “binds”.

As for “NADH dehydrogenase (ubiquinone) Fe-S protein 8 (NDUFS8), endogenous in rat basal forebrain”, in test [2], the binding result is reported as “binds”.
